# Primary screen of a compound library

Chains of the proteins cited; added tags and fusions are not shown. Residues count along the entry.
UniProt I6X8D2, whole entry: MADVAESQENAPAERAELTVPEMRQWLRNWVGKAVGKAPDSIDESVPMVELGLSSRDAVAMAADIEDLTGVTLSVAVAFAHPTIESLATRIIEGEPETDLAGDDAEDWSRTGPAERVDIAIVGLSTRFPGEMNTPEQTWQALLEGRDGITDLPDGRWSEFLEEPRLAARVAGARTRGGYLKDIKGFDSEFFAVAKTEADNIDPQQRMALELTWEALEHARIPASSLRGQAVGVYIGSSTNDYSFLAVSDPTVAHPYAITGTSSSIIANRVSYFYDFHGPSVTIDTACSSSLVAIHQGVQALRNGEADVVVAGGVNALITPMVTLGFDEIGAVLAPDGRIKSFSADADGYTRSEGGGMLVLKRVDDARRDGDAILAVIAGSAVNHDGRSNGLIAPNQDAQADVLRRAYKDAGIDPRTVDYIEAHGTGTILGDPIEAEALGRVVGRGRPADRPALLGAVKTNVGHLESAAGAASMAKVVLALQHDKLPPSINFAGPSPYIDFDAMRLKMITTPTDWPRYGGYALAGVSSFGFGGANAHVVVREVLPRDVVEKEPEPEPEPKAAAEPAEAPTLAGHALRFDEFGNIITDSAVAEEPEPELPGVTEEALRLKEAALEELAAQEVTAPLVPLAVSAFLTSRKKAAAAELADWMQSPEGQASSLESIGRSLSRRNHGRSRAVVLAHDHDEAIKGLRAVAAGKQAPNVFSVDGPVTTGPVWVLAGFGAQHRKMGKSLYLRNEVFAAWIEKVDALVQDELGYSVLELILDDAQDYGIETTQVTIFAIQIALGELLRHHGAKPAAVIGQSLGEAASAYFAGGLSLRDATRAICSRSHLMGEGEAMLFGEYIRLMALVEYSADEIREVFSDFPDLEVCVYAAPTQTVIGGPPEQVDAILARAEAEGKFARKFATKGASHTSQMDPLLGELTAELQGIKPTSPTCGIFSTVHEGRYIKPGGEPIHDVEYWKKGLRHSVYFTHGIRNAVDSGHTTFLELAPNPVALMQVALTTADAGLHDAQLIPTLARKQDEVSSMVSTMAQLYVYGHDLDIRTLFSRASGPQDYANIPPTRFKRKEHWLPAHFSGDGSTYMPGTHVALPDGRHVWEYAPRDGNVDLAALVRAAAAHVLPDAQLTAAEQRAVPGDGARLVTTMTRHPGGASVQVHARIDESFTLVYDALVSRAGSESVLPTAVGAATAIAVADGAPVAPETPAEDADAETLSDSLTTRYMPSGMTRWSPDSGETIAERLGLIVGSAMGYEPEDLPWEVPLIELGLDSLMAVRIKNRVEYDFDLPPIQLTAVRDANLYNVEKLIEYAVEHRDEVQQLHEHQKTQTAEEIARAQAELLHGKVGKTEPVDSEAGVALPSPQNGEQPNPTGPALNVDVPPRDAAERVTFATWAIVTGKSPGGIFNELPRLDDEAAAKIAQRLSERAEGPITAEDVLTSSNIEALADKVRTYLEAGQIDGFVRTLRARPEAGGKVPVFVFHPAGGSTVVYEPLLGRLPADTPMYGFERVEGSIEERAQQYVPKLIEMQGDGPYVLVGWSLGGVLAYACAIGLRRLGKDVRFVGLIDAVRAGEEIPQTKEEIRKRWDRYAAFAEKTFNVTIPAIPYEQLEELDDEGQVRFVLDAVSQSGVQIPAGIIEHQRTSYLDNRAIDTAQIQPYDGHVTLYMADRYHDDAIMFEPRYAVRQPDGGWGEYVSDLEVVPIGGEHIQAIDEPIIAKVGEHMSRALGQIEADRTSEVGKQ
UniProt Q8IDJ8, 1-583: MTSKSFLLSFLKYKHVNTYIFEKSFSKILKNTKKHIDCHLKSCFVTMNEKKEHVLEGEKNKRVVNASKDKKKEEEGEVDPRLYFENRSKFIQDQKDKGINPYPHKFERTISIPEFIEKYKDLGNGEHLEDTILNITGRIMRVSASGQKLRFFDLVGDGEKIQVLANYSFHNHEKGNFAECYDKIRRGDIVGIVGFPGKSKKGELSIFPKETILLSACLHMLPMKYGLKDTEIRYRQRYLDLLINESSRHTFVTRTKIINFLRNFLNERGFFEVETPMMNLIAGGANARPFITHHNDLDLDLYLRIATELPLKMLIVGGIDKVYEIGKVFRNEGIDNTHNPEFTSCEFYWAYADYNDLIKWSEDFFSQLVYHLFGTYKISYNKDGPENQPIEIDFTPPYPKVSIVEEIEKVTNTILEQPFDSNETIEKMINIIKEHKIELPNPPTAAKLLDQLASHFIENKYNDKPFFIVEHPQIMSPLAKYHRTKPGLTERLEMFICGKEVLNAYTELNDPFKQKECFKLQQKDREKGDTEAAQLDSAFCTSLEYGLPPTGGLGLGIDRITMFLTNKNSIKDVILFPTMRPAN
UniProt A4I591, 1-473: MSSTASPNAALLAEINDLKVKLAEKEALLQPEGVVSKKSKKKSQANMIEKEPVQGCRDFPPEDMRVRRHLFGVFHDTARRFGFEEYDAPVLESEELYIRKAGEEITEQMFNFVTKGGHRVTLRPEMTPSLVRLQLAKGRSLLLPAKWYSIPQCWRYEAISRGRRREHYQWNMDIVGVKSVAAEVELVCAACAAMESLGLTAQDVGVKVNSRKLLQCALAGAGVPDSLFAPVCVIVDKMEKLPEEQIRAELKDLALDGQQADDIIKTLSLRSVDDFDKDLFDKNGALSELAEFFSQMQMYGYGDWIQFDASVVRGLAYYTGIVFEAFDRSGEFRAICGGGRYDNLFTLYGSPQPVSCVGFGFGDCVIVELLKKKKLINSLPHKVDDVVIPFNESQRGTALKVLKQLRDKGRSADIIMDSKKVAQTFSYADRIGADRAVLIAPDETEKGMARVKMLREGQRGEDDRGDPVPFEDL
UniProt Q4DA54, 1-478: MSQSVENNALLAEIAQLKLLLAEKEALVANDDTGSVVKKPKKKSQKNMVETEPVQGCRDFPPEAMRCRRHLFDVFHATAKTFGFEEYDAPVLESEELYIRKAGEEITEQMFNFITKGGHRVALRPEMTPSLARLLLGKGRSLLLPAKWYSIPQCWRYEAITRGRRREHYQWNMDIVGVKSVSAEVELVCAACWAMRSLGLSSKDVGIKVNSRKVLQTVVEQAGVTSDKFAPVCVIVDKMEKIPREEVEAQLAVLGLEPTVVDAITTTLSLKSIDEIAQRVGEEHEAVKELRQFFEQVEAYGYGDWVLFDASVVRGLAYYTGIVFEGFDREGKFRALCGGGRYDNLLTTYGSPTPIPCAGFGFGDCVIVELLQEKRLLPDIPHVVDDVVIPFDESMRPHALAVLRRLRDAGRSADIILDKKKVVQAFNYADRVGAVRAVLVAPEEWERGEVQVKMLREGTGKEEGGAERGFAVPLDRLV

The values are deposited in ChEMBL (CHEMBL3988442, “University of Dundee, Small-Polar-MMV Screening Library” (2021)).

Pks13 thioesterase: 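Polyketide synthase Pks13, Mycobacterium tuberculosis (UniProt I6X8D2). Enzyme assay of the thioesterase domain of polyketide synthase 13; the read-out is not stated. Tested at 30 µM. The record gives no direction; the compounds picked for IC50 retests had high values, so higher reads as stronger inhibition. Size under these conditions: about 67,000 compounds, about 300 of them at 50% or above in at least one test.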
PfKRS1: 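Lysine-tRNA ligase, Plasmodium falciparum 3D7 (UniProt Q8IDJ8). Enzyme assay of the cytosolic lysyl-tRNA synthetase in 384-well plates, read by luminescence. Tested at 30 µM. Higher reads as stronger inhibition, judged from the few compounds that gave an IC50. Of about 69,000 compounds tested this way, about 49 (0.071%) reached 50% or more in at least one test.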
LiHisRS: 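Enzyme assay of histidyl-tRNA synthetase; the read-out is not stated. Target: Histidine-tRNA ligase, Leishmania infantum (UniProt A4I591). Compounds at 30 µM. The record gives no direction; compounds that gave an IC50 in retests scored well above the rest, so higher reads as stronger inhibition. The assay is labelled LdHisRS but filed under L. infantum. Of about 69,000 compounds tested this way, about 410 (0.6%) reached 50% or more in at least one test.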
TcHisRS: 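Enzyme assay of histidyl-tRNA synthetase; the read-out is not stated. Target: Histidine-tRNA ligase, Trypanosoma cruzi CL Brener (UniProt Q4DA54). Compounds at 30 µM. Direction is inferred from retests: higher values go with stronger inhibition. About 69,000 compounds were tested under these conditions; 0.045% (about 31) showed 50% or more at least once.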

The filed quantity is “Percent Effect” (%). How 0% and 100% were set is not recorded. Most values in the screen are low, and negative values occur. This is an unselected part of the compounds tested. A dash means the value is not listed here; it may have been measured.

structure	Pks13 thioesterase	PfKRS1	LiHisRS	TcHisRS
CC[C@H](C)[C@H](N)C(=O)N1CC(=O)c2sc(NC3CCCCC3)nc2C1	34.44	1.547	22.86	12.43
Cc1cccc(NC(=O)C(C)Nc2cccc(CN3CCOC3=O)c2)c1 (configuration not stated)	-20.09	0.676	10.19	6.158
CCN(CC(=O)Nc1c(C)nn(C)c1C)CC(O)c1ccc(C)cc1 (configuration not stated)	-30.69	-0.6417	5.479	2.186
O=C1CC2(CCCCN2C(=O)Cc2ccccc2)CN1c1cccnc1 (configuration not stated)	-2.396	2.786	5.556	6.468
c1ccc(Cc2noc(CN3CCc4c(ncn4C4CC4)C3)n2)cc1	-327.5	-0.5424	11.4	5.202
Cc1cnn(CC2CN(CC(=O)N(C)Cc3ccsc3)CCO2)c1 (configuration not stated)	-19.42	1.742	18.8	7.692
CC(C)c1nn(C)c(N2CCOCC2)c1CNC(C)c1ccco1 (configuration not stated)	-5.107	2.606	9.649	5.78
CCC(C)NC(=O)c1ccc(CNC(=O)COC)cc1 (configuration not stated)	30.13	2.608	15.62	3.191
O=c1[nH]ncc(NCCOc2ccc3c(c2)OCO3)c1Cl	-25.38	-2.955	8.333	-1.657
O=C(c1cnc(C2CC2)s1)N1CCCCC1Cn1cccn1 (configuration not stated)	-8.991	0.3145	5.405	-1.128
CC1CCCCN1Cc1ccc(-c2ccccc2C(=O)O)cc1 (configuration not stated)	-1.281	3.313	5.714	4.301
O=C(O)[C@@H]1CN(C(=O)CCc2ccccn2)C[C@H]1c1ccccc1	-7.845	3.518	-10.67	4.891
CN(C)[C@@H]1CN(C(=O)c2ccc3ccccc3n2)C[C@H]1O	4.406	2.294	10.34	6.084
CNS(=O)(=O)c1ccc(CNC(=O)NCC2CCC2)cc1	-4.201	15.87	4.959	-3.361
Cc1ccc(CC(=O)N2CCc3nnc(N(C)C)cc3C2)cn1	-4.895	9.964	-8.511	7.634
CN(C)[C@@H]1CCN(C(=O)c2ccccn2)[C@H]1Cc1cnn(C)c1	0.8778	0.515	8	0
COCCN1CCN(Cc2c(C)noc2C)Cc2ccc(C)nc21	6.706	0.08393	12.82	5.882
O=C(c1ccc(Cl)c(Cl)c1)N1CCCCC1C1OCCO1 (configuration not stated)	-1.903	-0.4891	0.8772	1.724
Cc1ccc(-c2noc(Cn3nc(C(N)=O)ccc3=O)n2)cc1	-0.4191	-2.43	6.667	0.8696
CN(C)C1Cc2ccccc2N(S(=O)(=O)c2ccccc2C#N)C1 (configuration not stated)	-9.329	-5.775	3.226	-3.093
C[C@]1(O)CN(CCO)CC[C@@H]1Oc1cccc(F)c1	7.726	5.798	4.348	3.297
CCc1nnsc1-c1nc(C(C)C)nn1-c1ccc2c(c1)OCO2	10.81	5.326	12.7	6.667
Cc1ncc(CNC2CCc3nc(C(C)C)nn3C2)s1 (configuration not stated)	10.92	1.175	8.989	3.518
Cc1cnc(NS(=O)(=O)c2cccc(C#N)c2)s1	-12.05	-4.481	32.39	0.6369
CC(=O)N1CCc2c(nc(N(C)C)nc2NC(C)Cc2cccs2)C1 (configuration not stated)	-113	1.974	12.82	6.897
CCc1noc(C2CCCCN2C(=O)c2cc(C)n(C)n2)n1 (configuration not stated)	-19.32	-2.557	15.52	2.609
CC(=O)N1CCCC1c1nccnc1NCc1cccnc1 (configuration not stated)	15.7	0.5817	12.86	10.34
O=C(N1CCCO1)[C@@]12CCO[C@@H]1CCN(Cc1ccccn1)C2	-22.49	-2.335	0	5.714
O=C(CSc1nc2nncc-2c(O)n1-c1ccccc1)N1CCOCC1	-17.7	1.875	12.64	7.216
O=C1OCCN1CCNc1ncc2c(n1)CCN2c1ccccc1	-17.7	-0.8565	31.15	5.814
O=C(N1CCCC1)N1CCc2ncnc(C3CCOC3)c2CC1 (configuration not stated)	-22.97	0.2264	5.109	7.104
c1ncn(Cc2nnc(C3CCN(CC4CC4)CC3)n2C2CC2)n1	4.352	3.425	20.51	0
O=C(c1cccc(F)c1)N1C[C@H]2CN(Cc3ccccn3)C[C@H]2C1	-20.09	3.219	5.769	2.913
CC(C)N(Cc1cccnc1)C(=O)CSc1ccc(C#N)cc1	-10.14	4.002	0	1.587
Cc1nc(C)c(C(=O)N2CCc3c(Cl)cccc32)o1	-11.57	1.994	2.222	9.091
Cc1cc(CN2C[C@@H]3COC[C@]3(COCc3csc(C)n3)C2)no1	12.39	2.236	-21.05	3.448
CN(C)[C@H]1CN(C(=O)CCc2cccc(F)c2)C[C@@H]1C1CC1	1.408	7.947	0	5.6
Cn1cc(CN2CCCC23CCN(S(C)(=O)=O)CC3)cn1	1.942	7.517	10.09	5.882
Cc1cc(C(=O)N2CCC3(CC2)C(=O)NCCN3CC(C)C)c(C)o1	-32.61	5.453	15.79	3.448
CCc1cc(N(C)Cc2ccnc(C)c2)n2nc(C)c(C)c2n1	-5.183	-2.053	0	8.8
CN(C)C(=O)N1CCn2cc(CNC(=O)CC3CC3)nc2C1	-10.97	-2.763	11.76	6.897
O=C(NC1(c2nnn(Cc3ccncc3)n2)CCCC1)c1ccccc1	-12.87	3.181	22.33	3.734
CC(C)CC(=O)NS(=O)(=O)c1ccc(C#N)cc1C(F)(F)F	-4.01	5.577	3.571	6.395
CC(C)NC(=O)NCCCc1cccc(F)c1	-6.643	3.055	11.57	11.22
N#CCCCS(=O)(=O)NC1(c2cccc(Cl)c2)CC1	-16.75	6.159	23.91	7.921
Cc1nc(Nc2cnccn2)cc(C2CCCN2)n1 (configuration not stated)	-8.791	-2.33	10.74	3.714
CNC(=O)CN(C)CC1(c2ccc(Br)cc2)CC1	-13.69	4.65	19.64	1.754
CC(C)CCn1ccc(NC2CCSC2)n1 (configuration not stated)	-	1.598	11.61	3.448
O=C(c1ccc(S(=O)(=O)N2CCSCC2)cc1)N1CCC(O)C1 (configuration not stated)	0.7526	0.8703	7.692	6.186
O=C(c1ccc(Cl)cc1)N1CC2(CCNC2)OCc2ccccc21 (configuration not stated)	-3.808	1.984	11.03	-258.6
CCn1nc(C)c(CCNC(=O)C2CCCN(CC(N)=O)C2)c1C (configuration not stated)	-16.87	0.7971	13.33	-0.8264
O=C1NCc2ccccc2CC12CCN(Cc1ccccc1Cl)CC2	-18.21	1.494	-2.759	7.692
O=C(O)C1(Cc2cc(-c3ccc(F)cc3F)no2)CCOCC1	-29.23	-6.821	5.556	2.703
CS(=O)(=O)c1cccc(S(=O)(=O)NC(=O)CCC2CCCCC2)c1	-35.89	1.773	23.94	4.459
C[C@@H]1CN(c2ccc3c(Cl)ccnc3c2F)CC(C(N)=O)O1 (some centres not stated)	-31.09	2.41	14.17	10.53
Cc1nc(CN2CCCC(N(C)Cc3c(C)noc3C)C2)no1 (configuration not stated)	-20.33	-1.253	21.33	1.132
C=C(C)COc1cccc(C(=O)N(C)Cc2cc(CC)no2)c1	0.2921	-3.055	4.8	0
Cn1cc(N2CCC3(CCN(Cc4cccnc4)C3)C2=O)cn1 (configuration not stated)	-16.95	1.642	13.53	6.077
O=C(N[C@H]1CC[C@H](O)CC1)c1ccc2nc(-c3ccc(F)cc3)cn2c1	-9.234	5.143	20.43	12.5
CN1CCc2[nH]nc(C(=O)N3CCCC4(CC3)CNC(=O)O4)c2C1 (configuration not stated)	-4.475	11.33	12.82	3.933
CN1CCN(c2ccccc2CNC(=O)Cc2ccccc2F)CC1	-9.934	6.41	24.29	2.128
OC[C@@H]1[C@@H](c2ccccc2)CN2CCN(c3ccccn3)C[C@H]12	2.653	-0.5295	4.124	5.78
COc1ccc(CCCN(C)C(=O)c2cc(C(C)=O)c[nH]2)cc1OC	-28.01	3.533	2.073	3.867

The first 6 entries again:

structure	Pks13 thioesterase	PfKRS1	LiHisRS	TcHisRS
CC[C@H](C)[C@H](N)C(=O)N1CC(=O)c2sc(NC3CCCCC3)nc2C1	34.44	1.547	22.86	12.43
Cc1cccc(NC(=O)C(C)Nc2cccc(CN3CCOC3=O)c2)c1 (configuration not stated)	-20.09	0.676	10.19	6.158
CCN(CC(=O)Nc1c(C)nn(C)c1C)CC(O)c1ccc(C)cc1 (configuration not stated)	-30.69	-0.6417	5.479	2.186
O=C1CC2(CCCCN2C(=O)Cc2ccccc2)CN1c1cccnc1 (configuration not stated)	-2.396	2.786	5.556	6.468
c1ccc(Cc2noc(CN3CCc4c(ncn4C4CC4)C3)n2)cc1	-327.5	-0.5424	11.4	5.202
Cc1cnn(CC2CN(CC(=O)N(C)Cc3ccsc3)CCO2)c1 (configuration not stated)	-19.42	1.742	18.8	7.692